Reference: PMC11344848, “Proximity-driven site-specific cyclization of phage-displayed peptides” (Nature Communications, 2024)
These are yes or no findings as the source states them, for the method shown.

Biological target: streptavidin (UniProt P22629)
Test: ELISA; phage ELISA: streptavidin-coated 96 well plate, no biotinylated antigen; phage blocked in 3% (w/v) mPBS, 1 h at room temperature; bound phage detected with anti-M13-HRP; only the target purified

Binder: CGGSGGC (CCA-cyclized (linker CCA between the two cysteines)) [CCA-cyclized negative control phage construct (CGGSGGC)]
- binding: no binding
